For the assay, the system named is BDF1 mice, P388 leukemia ip, median survival T/C. Kind of assay: NCI In Vivo Anticancer Drug Screen. Data for tumor model P388 Leukemia (intraperitoneal) in B6D2F1 (BDF1) mice. As to conditions: T/C endpoint: median survival time, higher T/C = longer survival. Put shortly:
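Each value expresses how treatment altered survival: treated-mouse outcome over vehicle-mouse outcome, both groups bearing the transplanted tumour.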

Setting [1] is: dose: 100.0 mg/kg/injection, schedule: Q01DX009 (ip), vehicle: saline with Tween-80.
Setting [2] is: dose: 300.0 mg/kg/injection, schedule: Q04DX003 (ip), vehicle: saline with Tween-80.
Where [3] appears, read: dose: 100.0 mg/kg/injection, schedule: Q01DX009 (ip), vehicle: saline.

The list does not hold the whole screen: it gathers tests that were run many times, whatever their T/C, doses with no T/C, and many T/C values between a quarter and a half above the control. Further doses and runs are listed elsewhere. T/C is the treated group as % of the vehicle group. Some doses have a count of surviving animals in place of a T/C: the source files T/C as zero there, which appears to mark a toxic dose or a test without result, not a measured value. Some survivor counts are full or nearly so, which does not show that the dose was tolerated: survival well below the control is almost never listed, so the zero probably covers shortened survival too. Survivors were counted at the toxicity check, usually on the fifth day, unless a day is given; later deaths do not show. Schedule codes are those of the source, read here as Q, the interval in days (D) or hours (H), X, the number of doses. Where survival is the endpoint, this PubChem deposit counts one and a half times the control or more as active, and values a quarter to a half above the control carry no call in these data; other NCI protocols may use other cut-offs. Some T/C values carry the count of animals alive at the toxicity check (mostly the fifth day); where none is given, no animal had died by that day. Some doses were run more than once; their values stand side by side, smallest first.

Consider `N=[N+]=CC(=O)CCC(NC(=O)C(CCC(=O)C=[N+]=N)NC(=O)CCC(N)C(=O)O)C(=O)O` (stereo unspecified), for which the T/C is 127 % of control (dose: 0.05 mg/kg/injection, schedule: Q01DX009 (ip), vehicle: water); 145 % of control (dose: 0.1 mg/kg/injection, schedule: Q01DX009 (ip), vehicle: water); 140 % of control (dose: 0.1 mg/kg/injection, schedule: Q01DX010 (ip), vehicle: other); 145 % of control (dose: 0.25 mg/kg/injection, schedule: Q01DX005 (iv), vehicle: water); 145 % of control (dose: 0.5 mg/kg/injection, schedule: Q01DX005 (iv), vehicle: water); 136 % of control (dose: 1.0 mg/kg/injection, schedule: Q01DX005 (iv), vehicle: water). Besides, under “dose: 60.0 mg/kg/injection, schedule: Q04DX003 (ip), vehicle: water”, the T/C is 131 % of control. Further, the survivor count is 6 of 6 (dose: 0.4 mg/kg/injection, schedule: Q01DX010 (ip), vehicle: water); 6 of 6 (dose: 1.2 mg/kg/injection, schedule: Q01DX010 (ip), vehicle: water); 6 of 6 (dose: 2.0 mg/kg/injection, schedule: Q01DX005 (iv), vehicle: water); 6 of 6 (dose: 3.0 mg/kg/injection, schedule: Q01DX005 (iv), vehicle: water); 6 of 6 (dose: 4.0 mg/kg/injection, schedule: Q01DX005 (iv), vehicle: water); 4 of 6 (dose: 200.0 mg/kg/injection, schedule: Q04DX003 (oral), vehicle: water).

With `C#CC(OC(=O)NC1CCCCC1)(c1ccccc1)c1ccccc1`, the T/C runs as follows: (dose: 11.0 mg/kg/injection, schedule: Q01DX009 (ip), vehicle: saline with Tween-80) 130 % of control; (dose: 25.0 mg/kg/injection, schedule: Q01DX009 (ip), vehicle: saline with Tween-80) 127 % of control; (dose: 200.0 mg/kg/injection, schedule: Q04DX003 (ip), vehicle: saline with Tween-80) 146 % of control. The survivor count runs as follows: under setting [1], 6 of 6; (dose: 100.0 mg/kg/injection, schedule: Q04DX003 (ip), vehicle: saline with Tween-80) 6 of 6; under setting [2], 6 of 6; (dose: 400.0 mg/kg/injection, schedule: Q04DX003 (ip), vehicle: saline with Tween-80) 0 of 6.

With `CC(C)=NOC(=O)Nc1ccc(Cl)cc1`, the survivor count (dose: 200.0 mg/kg/injection, schedule: Q01DX009 (ip), vehicle: Klucel (hydroxypropylcellulose) (HPC)) was 6 of 6.

With `CCCCCCCCCCCCCCCCS(=O)CC(O)COC(=O)c1ccc(C(=O)OCC(O)CS(=O)CCCCCCCCCCCCCCCC)cc1` (stereo unspecified), the T/C runs as follows: (dose: 50.0 mg/kg/injection, schedule: Q01DX009 (ip), vehicle: other) 125 % of control; (dose: 100.0 mg/kg/injection, schedule: Q01DX009 (ip), vehicle: other) 130 % of control; (dose: 200.0 mg/kg/injection, schedule: Q01DX009 (ip), vehicle: other) 145 % of control.

With `CC1CN1P(=O)(OCCC#N)N1CC1C` (stereo unspecified), the T/C was 145 % of control (dose: 44.0 mg/kg/injection, schedule: Q01DX009 (ip), vehicle: other); 143 % of control (dose: 50.0 mg/kg/injection, schedule: Q01DX009 (ip), vehicle: saline); 133 % of control (dose: 66.0 mg/kg/injection, schedule: Q01DX009 (ip), vehicle: other); 133 and 139 % of control [5 of 6 alive] under setting [3]. The survivor count is given as 4 of 6 (dose: 400.0 mg/kg/injection, schedule: Q01DX009 (ip), vehicle: saline) and 5 of 6 (dose: 400.0 mg/kg/injection, schedule: Q04DX003 (ip), vehicle: other).

In the case of `CC(C)(CC(=O)O)CC(=O)OCC(=O)[C@@]1(O)CC[C@H]2[C@@H]3CCC4=CC(=O)C=C[C@]4(C)[C@H]3[C@@H](O)C[C@@]21C`, the T/C is, setting by setting: (dose: 100.0 mg/kg/injection, schedule: Q01DX009 (sc), vehicle: steroid suspending solution) 133 % of control; (dose: 400.0 mg/kg/injection, schedule: Q01DX009 (sc), vehicle: steroid suspending solution) 133 % of control.

As for `CCCCOP(=O)(N1CC1CC)N1CC1CC` (stereo unspecified), the T/C under setting [2] was 145 % of control.

`O=S(=O)(CCl)OCCCCOS(=O)(=O)CCl`: the survivor count runs as follows: under setting [3], 6 of 6; (dose: 150.0 mg/kg/injection, schedule: Q01DX009 (ip), vehicle: saline) 4 of 6.

For the compound `Cc1onc(-c2ccccc2)c1C(=O)N1CCCN2C(=O)c3ccccc3C21` (stereo unspecified), the survivor count (dose: 50.0 mg/kg/injection, schedule: Q01DX009 (ip), vehicle: saline with Tween-80) is 6 of 6 and the survivor count under setting [1] is 6 of 6.

Consider `Cc1cc(NC(=O)Nc2ccc(C3=NCCN3)cc2)ccc1NC(=O)Nc1ccc(C2=NCCN2)cc1`, for which, under “dose: 200.0 mg/kg/injection, schedule: Q01DX009 (ip), vehicle: saline with Tween-80”, the T/C is 145 % of control.

On to `CN(C)CCCNC1=CC(=O)c2ccccc2C1=O`, for which the survivor count (dose: 200.0 mg/kg/injection, schedule: Q01DX009 (ip), vehicle: water) is on record as 3 of 6.

Turning to `CS(=O)(=O)NN`, the survivor count is on record as 0 of 6 (dose: 75.0 mg/kg/injection, schedule: Q01DX009 (ip), vehicle: saline); 0 of 6 (dose: 115.0 mg/kg/injection, schedule: Q01DX009 (ip), vehicle: saline); 0 of 6 (dose: 150.0 mg/kg/injection, schedule: Q04DX003 (ip), vehicle: saline); 0 of 6 (dose: 170.0 mg/kg/injection, schedule: Q01DX009 (ip), vehicle: saline).

Turning to `CS(=O)(=O)ON1C(=O)c2ccccc2C1=O`, the T/C (dose: 50.0 mg/kg/injection, schedule: Q04DX003 (ip), vehicle: saline) is 135 % of control. The survivor count is, setting by setting: (dose: 200.0 mg/kg/injection, schedule: Q04DX003 (ip), vehicle: saline) 5 of 6; (dose: 400.0 mg/kg/injection, schedule: Q04DX003 (ip), vehicle: saline) 0 of 6.

In the case of `C/C(=N\N=C(N)N)c1ccc(NC(=O)Nc2ccc(/C(C)=N/N=C(N)N)cc2)cc1`, the T/C is 125 % of control (dose: 2.3 mg/kg/injection, schedule: Q04DX003 (ip), vehicle: saline) and 131 % of control (dose: 3.6 mg/kg/injection, schedule: Q04DX003 (ip), vehicle: saline).

For `COc1c(CO)c2c(c(OC)c1OC)-c1ccc(OC)c(=O)cc1[C@@H](NC(C)=O)CC2`, the T/C (dose: 6.25 mg/kg/injection, schedule: Q01DX009 (ip), vehicle: Klucel (hydroxypropylcellulose) (HPC)) is 144 % of control; the T/C (dose: 12.5 mg/kg/injection, schedule: Q01DX009 (ip), vehicle: Klucel (hydroxypropylcellulose) (HPC)) is 144 % of control; the T/C (dose: 100.0 mg/kg/injection, schedule: Q01DX009 (ip), vehicle: Klucel (hydroxypropylcellulose) (HPC)) is 126 % of control.

Regarding `O=S(=O)(O)SCCNCCCCCC1CCCCC1`, the survivor count was 0 of 6 (dose: 12.0 mg/kg/injection, schedule: Q01DX009 (ip), vehicle: Klucel (hydroxypropylcellulose) (HPC)) and 0 of 6 (dose: 24.0 mg/kg/injection, schedule: Q01DX009 (ip), vehicle: Klucel (hydroxypropylcellulose) (HPC)). For the same compound, where the note is “dose: 12.0 mg/kg/injection, schedule: Q01DX009 (ip), vehicle: saline”, the T/C was 125 % of control [4 of 6 alive].

As to `O=C(CN1CC1)NCCCCCCCCCNC(=O)CN1CC1`, the survivor count is listed as 5 of 6 (dose: 18.75 mg/kg/injection, schedule: Q01DX009 (ip), vehicle: saline sonified); 6 of 6 (dose: 37.5 mg/kg/injection, schedule: Q01DX009 (ip), vehicle: saline sonified); 3 of 6 (dose: 75.0 mg/kg/injection, schedule: Q01DX009 (ip), vehicle: saline sonified); 1 of 5 (dose: 75.0 mg/kg/injection, schedule: Q04DX003 (ip), vehicle: saline sonified). Moreover, under “dose: 27.0 mg/kg/injection, schedule: Q04DX003 (ip), vehicle: saline”, the T/C was 138 % of control.

On to `[CH3][Sn]([CH3])([CH3])[S]C(=S)N1CCOCC1`, for which the survivor count by setting is: (dose: 1.5 mg/kg/injection, schedule: Q01DX009 (ip), vehicle: Klucel (hydroxypropylcellulose) (HPC)) 6 of 6; (dose: 3.0 mg/kg/injection, schedule: Q01DX009 (ip), vehicle: Klucel (hydroxypropylcellulose) (HPC)) 1 of 6.

(Values after PubChem BioAssay AID328 (DTP/NCI, 2004).)
